# Measured values taken from the supplement of paper PMC8728848.
# This is one part of the list.
# B1: Langerin K299A/K313A (Homo sapiens), Q9UJ71 (protein)
# chain: STLNAQIPELKSDLEKASALNTKIRALQGSLENMSKLLKRQNDILQVVSQGWKYFKGNFYYFSLIPKTWYSAEQFCVSRNSHLTSVTSESEQEFLYKTAGGLIYWIGLTKAGMEGDWSWVDDTPFNKVQSARFWIPGEPNNAGNNEHCGNIAAPSLQAWNDAPCDATFLFICKRPYVPSEP
# What was measured:
# Assay in all cases: glycan array binding signal (z-score within array); higher = stronger binding
# Conditions in all cases: glycan notation: IUPAC condensed, linker removed
# [1] = molecular target: Neu5Ac(a2-3)Gal(b1-4)GlcNAc(b1-6)GalNAc
# Summary of the method: (§1)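 Columns mapping to the same glycan were averaged after glycan names were converted to IUPAC-condensed notation. The data come from 3228 arrays in the Consortium for Functional Glycomics database, limited to those with an available protein sequence. Binding is reported as a within-array Z-score averaged across arrays of one protein sequence and across linkers.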
# [2] = molecular target: Neu5Ac(a2-3)Gal(b1-4)GlcNAc(b1-6)[Gal(b1-3)]GalNAc
# Summary of the method: as §1
# [3] = molecular target: Neu5Ac(a2-3)Gal(b1-4)GlcNAc(b1-6)[Neu5Ac(a2-3)Gal(b1-3)]GalNAc
# Summary of the method: as §1
# [4] = molecular target: Neu5Ac(a2-3)Gal(b1-4)GlcNAc6S
# Summary of the method: as §1
# [5] = molecular target: Neu5Ac(a2-3)Gal(b1-4)[Fuc(a1-3)]GlcNAc
# Summary of the method: as §1
# [6] = molecular target: Neu5Ac(a2-3)Gal(b1-4)[Fuc(a1-3)]GlcNAc(b1-2)Man
# Summary of the method: as §1
# [7] = molecular target: Neu5Ac(a2-3)Gal(b1-4)[Fuc(a1-3)]GlcNAc(b1-3)Gal
# Summary of the method: as §1
# [8] = molecular target: Neu5Ac(a2-3)Gal(b1-4)[Fuc(a1-3)]GlcNAc(b1-3)Gal(b1-4)GlcNAc
# Summary of the method: as §1
# [9] = molecular target: Neu5Ac(a2-3)Gal(b1-4)[Fuc(a1-3)]GlcNAc(b1-3)Gal(b1-4)[Fuc(a1-3)]GlcNAc(b1-3)Gal(b1-4)[Fuc(a1-3)]GlcNAc
# Summary of the method: as §1
# [10] = molecular target: Neu5Ac(a2-3)Gal(b1-4)[Fuc(a1-3)]GlcNAc(b1-3)GalNAc
# Summary of the method: as §1
# [11] = molecular target: Neu5Ac(a2-3)Gal(b1-4)[Fuc(a1-3)]GlcNAc(b1-6)[Gal(b1-3)]GalNAc
# Summary of the method: as §1
# [12] = molecular target: Neu5Ac(a2-3)Gal(b1-4)[Fuc(a1-3)]GlcNAc(b1-6)[Neu5Ac(a2-3)Gal(b1-3)]GalNAc
# Summary of the method: as §1
# [13] = molecular target: Neu5Ac(a2-3)Gal(b1-4)[Fuc(a1-3)]GlcNAc6S
# Summary of the method: as §1
# [14] = molecular target: Neu5Ac(a2-3)Gal6S(b1-4)GlcNAc
# Summary of the method: as §1
# [15] = molecular target: Neu5Ac(a2-3)Gal6S(b1-4)[Fuc(a1-3)]GlcNAc
# Summary of the method: as §1
# Neu5Ac(a2-3)GalNAc = molecular target: Neu5Ac(a2-3)GalNAc
# Summary of the method: as §1
# [16] = molecular target: Neu5Ac(a2-3)GalNAc(b1-4)GlcNAc
# Summary of the method: as §1
# [17] = molecular target: Neu5Ac(a2-3)[GalNAc(b1-4)]Gal(b1-4)Glc
# Summary of the method: as §1
# [18] = molecular target: Neu5Ac(a2-3)[GalNAc(b1-4)]Gal(b1-4)GlcNAc
# Summary of the method: as §1
# [19] = molecular target: Neu5Ac(a2-3)[GalNAc(b1-4)]Gal(b1-4)GlcNAc(b1-3)GalNAc
# Summary of the method: as §1
# [20] = molecular target: Neu5Ac(a2-3)[Neu5Ac(a2-6)]GalNAc
# Summary of the method: as §1
# Neu5Ac(a2-6)Gal = molecular target: Neu5Ac(a2-6)Gal
# Summary of the method: as §1
# [21] = molecular target: Neu5Ac(a2-6)Gal(b1-3)GlcNAc(b1-3)[Gal(b1-4)GlcNAc(b1-6)]Gal(b1-4)Glc
# Summary of the method: as §1
# Neu5Ac(a2-6)Gal(b1-4)Glc = molecular target: Neu5Ac(a2-6)Gal(b1-4)Glc
# Summary of the method: as §1
# [22] = molecular target: Neu5Ac(a2-6)Gal(b1-4)GlcNAc
# Summary of the method: as §1
# [23] = molecular target: Neu5Ac(a2-6)Gal(b1-4)GlcNAc(b1-2)Man
# Summary of the method: as §1
# [24] = molecular target: Neu5Ac(a2-6)Gal(b1-4)GlcNAc(b1-2)Man(a1-3)Man(b1-4)GlcNAc(b1-4)GlcNAc
# Summary of the method: as §1
# [25] = molecular target: Neu5Ac(a2-6)Gal(b1-4)GlcNAc(b1-2)Man(a1-3)[Gal(b1-4)GlcNAc(b1-2)Man(a1-6)]Man(b1-4)GlcNAc(b1-4)GlcNAc
# Summary of the method: as §1
# [26] = molecular target: Neu5Ac(a2-6)Gal(b1-4)GlcNAc(b1-2)Man(a1-3)[GlcNAc(b1-2)Man(a1-6)]Man(b1-4)GlcNAc(b1-4)GlcNAc
# Summary of the method: as §1
# [27] = molecular target: Neu5Ac(a2-6)Gal(b1-4)GlcNAc(b1-2)Man(a1-3)[GlcNAc(b1-4)][Neu5Ac(a2-6)Gal(b1-4)GlcNAc(b1-2)Man(a1-6)]Man(b1-4)GlcNAc(b1-4)GlcNAc
# Summary of the method: as §1
# [28] = molecular target: Neu5Ac(a2-6)Gal(b1-4)GlcNAc(b1-2)Man(a1-3)[Man(a1-6)]Man(b1-4)GlcNAc(b1-4)GlcNAc
# Summary of the method: as §1
# [29] = molecular target: Neu5Ac(a2-6)Gal(b1-4)GlcNAc(b1-2)Man(a1-3)[Neu5Ac(a2-3)Gal(b1-4)GlcNAc(b1-2)Man(a1-6)]Man(b1-4)GlcNAc(b1-4)GlcNAc
# Summary of the method: as §1
# [30] = molecular target: Neu5Ac(a2-6)Gal(b1-4)GlcNAc(b1-2)Man(a1-3)[Neu5Ac(a2-6)Gal(b1-4)GlcNAc(b1-2)Man(a1-6)]Man(b1-4)GlcNAc(b1-4)GlcNAc
# Summary of the method: as §1
# [31] = molecular target: Neu5Ac(a2-6)Gal(b1-4)GlcNAc(b1-2)Man(a1-3)[Neu5Ac(a2-6)Gal(b1-4)GlcNAc(b1-2)Man(a1-6)]Man(b1-4)GlcNAc(b1-4)[Fuc(a1-6)]GlcNAc
# Summary of the method: as §1
# [32] = molecular target: Neu5Ac(a2-6)Gal(b1-4)GlcNAc(b1-2)Man(a1-6)Man(b1-4)GlcNAc(b1-4)GlcNAc
# Summary of the method: as §1
# [33] = molecular target: Neu5Ac(a2-6)Gal(b1-4)GlcNAc(b1-2)Man(a1-6)[Gal(b1-4)GlcNAc(b1-2)Man(a1-3)]Man(b1-4)GlcNAc(b1-4)GlcNAc
# Summary of the method: as §1
# [34] = molecular target: Neu5Ac(a2-6)Gal(b1-4)GlcNAc(b1-2)Man(a1-6)[GlcNAc(b1-2)Man(a1-3)]Man(b1-4)GlcNAc(b1-4)GlcNAc
# Summary of the method: as §1
# [35] = molecular target: Neu5Ac(a2-6)Gal(b1-4)GlcNAc(b1-2)Man(a1-6)[Man(a1-3)]Man(b1-4)GlcNAc(b1-4)GlcNAc
# Summary of the method: as §1
# [36] = molecular target: Neu5Ac(a2-6)Gal(b1-4)GlcNAc(b1-2)[Neu5Ac(a2-6)Gal(b1-4)GlcNAc(b1-4)]Man(a1-3)[GlcNAc(b1-4)][Neu5Ac(a2-6)Gal(b1-4)GlcNAc(b1-2)[Neu5Ac(a2-6)Gal(b1-4)GlcNAc(b1-6)]Man(a1-6)]Man(b1-4)GlcNAc(b1-4)GlcNAc
# Summary of the method: as §1
# [37] = molecular target: Neu5Ac(a2-6)Gal(b1-4)GlcNAc(b1-2)[Neu5Ac(a2-6)Gal(b1-4)GlcNAc(b1-4)]Man(a1-3)[GlcNAc(b1-4)][Neu5Ac(a2-6)Gal(b1-4)GlcNAc(b1-4)Man(a1-6)]Man(b1-4)GlcNAc(b1-4)GlcNAc
# Summary of the method: as §1
# [38] = molecular target: Neu5Ac(a2-6)Gal(b1-4)GlcNAc(b1-2)[Neu5Ac(a2-6)Gal(b1-4)GlcNAc(b1-6)]Man(a1-6)[Neu5Ac(a2-6)Gal(b1-4)GlcNAc(b1-2)Man(a1-3)][GlcNAc(b1-4)]Man(b1-4)GlcNAc(b1-4)GlcNAc
# Summary of the method: as §1
# [39] = molecular target: Neu5Ac(a2-6)Gal(b1-4)GlcNAc(b1-3)Gal(b1-3)GlcNAc
# Summary of the method: as §1
# [40] = molecular target: Neu5Ac(a2-6)Gal(b1-4)GlcNAc(b1-3)Gal(b1-4)GlcNAc
# Summary of the method: as §1
# [41] = molecular target: Neu5Ac(a2-6)Gal(b1-4)GlcNAc(b1-3)Gal(b1-4)GlcNAc(b1-2)Man(a1-3)[Neu5Ac(a2-6)Gal(b1-4)GlcNAc(b1-3)Gal(b1-4)GlcNAc(b1-2)Man(a1-6)]GalNAc
# Summary of the method: as §1
# [42] = molecular target: Neu5Ac(a2-6)Gal(b1-4)GlcNAc(b1-3)Gal(b1-4)GlcNAc(b1-3)Gal(b1-4)GlcNAc
# Summary of the method: as §1
binder,measurement,setting,value
B1,glycan array binding signal (z-score),[1],-0.362
same,glycan array binding signal (z-score),[2],0.003
same,glycan array binding signal (z-score),[3],-1.12
same,glycan array binding signal (z-score),[4],-0.255
same,glycan array binding signal (z-score),[5],-0.624
same,glycan array binding signal (z-score),[6],0.642
same,glycan array binding signal (z-score),[7],-0.991
same,glycan array binding signal (z-score),[8],2.63
same,glycan array binding signal (z-score),[9],0.905
same,glycan array binding signal (z-score),[10],3.01
same,glycan array binding signal (z-score),[11],2.09
same,glycan array binding signal (z-score),[12],1.98
same,glycan array binding signal (z-score),[13],0.192
same,glycan array binding signal (z-score),[14],0.423
same,glycan array binding signal (z-score),[15],-0.88
same,glycan array binding signal (z-score),Neu5Ac(a2-3)GalNAc,-0.957
same,glycan array binding signal (z-score),[16],-1.09
same,glycan array binding signal (z-score),[17],-0.76
same,glycan array binding signal (z-score),[18],-0.463
same,glycan array binding signal (z-score),[19],0.982
same,glycan array binding signal (z-score),[20],-0.582
same,glycan array binding signal (z-score),Neu5Ac(a2-6)Gal,0.01
same,glycan array binding signal (z-score),[21],0.329
same,glycan array binding signal (z-score),Neu5Ac(a2-6)Gal(b1-4)Glc,0.274
same,glycan array binding signal (z-score),[22],-0.562
same,glycan array binding signal (z-score),[23],0.121
same,glycan array binding signal (z-score),[24],0.243
same,glycan array binding signal (z-score),[25],-1.06
same,glycan array binding signal (z-score),[26],-1.05
same,glycan array binding signal (z-score),[27],-1.33
same,glycan array binding signal (z-score),[28],0.566
same,glycan array binding signal (z-score),[29],0.009
same,glycan array binding signal (z-score),[30],-0.141
same,glycan array binding signal (z-score),[31],3.07
same,glycan array binding signal (z-score),[32],-1.29
same,glycan array binding signal (z-score),[33],-0.35
same,glycan array binding signal (z-score),[34],-0.799
same,glycan array binding signal (z-score),[35],0.436
same,glycan array binding signal (z-score),[36],-1.17
same,glycan array binding signal (z-score),[37],-0.195
same,glycan array binding signal (z-score),[38],-0.422
same,glycan array binding signal (z-score),[39],-0.216
same,glycan array binding signal (z-score),[40],-0.894
same,glycan array binding signal (z-score),[41],0.986
same,glycan array binding signal (z-score),[42],-0.708
